The term EC50 denotes the concentration that produces a half-maximal response.

Sequences of proteins named here, by UniProt entry; tags and fusion partners are left off.
UniProt P04150, whole entry: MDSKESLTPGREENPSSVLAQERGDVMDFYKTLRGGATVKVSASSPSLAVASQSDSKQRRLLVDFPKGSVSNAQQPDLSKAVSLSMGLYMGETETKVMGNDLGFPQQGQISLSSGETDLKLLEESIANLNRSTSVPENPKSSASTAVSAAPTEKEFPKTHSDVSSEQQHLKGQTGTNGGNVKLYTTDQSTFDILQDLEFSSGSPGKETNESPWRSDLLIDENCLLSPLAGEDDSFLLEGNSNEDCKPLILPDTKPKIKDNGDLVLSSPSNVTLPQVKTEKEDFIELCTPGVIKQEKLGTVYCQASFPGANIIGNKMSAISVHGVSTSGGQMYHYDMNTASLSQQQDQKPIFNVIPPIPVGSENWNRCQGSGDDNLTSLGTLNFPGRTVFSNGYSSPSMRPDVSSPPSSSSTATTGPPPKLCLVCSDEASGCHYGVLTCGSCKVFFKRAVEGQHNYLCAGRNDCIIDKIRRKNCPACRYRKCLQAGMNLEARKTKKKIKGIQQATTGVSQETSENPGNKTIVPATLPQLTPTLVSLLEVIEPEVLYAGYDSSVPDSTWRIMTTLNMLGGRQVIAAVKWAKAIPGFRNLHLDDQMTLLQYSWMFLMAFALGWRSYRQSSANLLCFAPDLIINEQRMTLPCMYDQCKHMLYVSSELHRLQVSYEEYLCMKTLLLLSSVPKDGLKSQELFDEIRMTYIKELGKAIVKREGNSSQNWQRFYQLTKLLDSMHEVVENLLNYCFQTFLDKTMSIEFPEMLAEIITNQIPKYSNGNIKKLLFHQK

Test [1] has as its target glucocorticoid receptor (Homo sapiens, UniProt P04150). Kind of test: Activity assay of glucocorticoid receptor reporter gene GRE. Type of test: cell-based. The settings on record: read-out: EC50 (nM), glucocorticoid receptor reporter gene GRE activity; HEK293 cells transfected with pGL5 and pBIND-GR; 24 h; Dual-Glo luciferase. On the technique in general: Reporter assays use an easily measured gene product as a stand-in for the process of interest.

Test [2] has as its target GR (Homo sapiens, UniProt P04150). Kind of test: GR luciferase reporter gene elution experiment. The note with it: supernatant removed and washed, then 24 h.

Structures were worked out from names or drawings and are uncertain.

For the compound `C[C@]12C=CC(=O)C=C1CC[C@H]1[C@@H]3C[C@H]4O[C@@H](c5ccc(Cc6cccc(N)c6)s5)O[C@@]4(C(=O)CO)[C@@]3(C)C[C@H](O)[C@@]12F`, the EC50 in test [1] was found to be 0.3 nM. Besides, the “Elution time (Act %) 15 min” value in test [2] (incubation 15 min) amounted to 32.9%. Also, the “Elution time (Act %) 30 min” value in test [2] (incubation 30 min) stood at 29.2%. For the same compound, the “Elution time (Act %) 1 h” value in test [2] (incubation 1 h) is given as 28.7%. In addition, the “Elution time (Act %) 2 h” value in test [2] (incubation 2 h) stood at 23.8%. In addition, in test [2] (incubation 4 h), the “Elution time (Act %) 4 h” value is 32.2%.

For the origin of these results see patent US20250179114A1.
